Measured values reported in PubChem BioAssay AID2685 (National Center for Advancing Translational Sciences (NCATS), 2010).
The other results are listed elsewhere or left out. Further columns of the screen follow, without active or inactive calls. Most of these compounds were active or inconclusive in the main read-out, so they are no random draw. The note in brackets gives the kind of curve behind each potency; many fits are weak.

Assay: qHTS Assay for Lipid Storage Modulators in Drosophila S3 Cells;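 on cell number change: cells counted by Cell Tracker Red CMTPX staining in the red channel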
Conditions: BODIPY lipid droplet fluorescence, 18-24 h; for cell number change: measured here: cell count max response, cells fed with added oleic acid
How it was run: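 Drosophila S3 cells loaded with oleic acid (400 uM, as added) and compounds at several concentrations; lipid droplets imaged by 488-nm laser-scanning cytometry, 500–530 nm intensity and object ratio to cell channel. Percent activity normalized to 20 uM Triacsin C.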

[1] = measured here: lipid fluorescence (Fed channel) AC50, cells fed with added oleic acid
[2] = measured here: cell number channel AC50, cells fed with added oleic acid

Row | SMILES | cell number change [%] | AC50 [1] | AC50 [2]
1 | O=C(O)c1cc(S(=O)(=O)N2CCOCC2)ccc1N1CCOCC1 | -5.81 | 29.1 µM [falling, single point] | 
2 | NCc1ccc(-c2nc3ccccc3o2)cc1 | 1.44 |  | 
3 | CCOC(=O)c1csc(COc2ccccc2Cl)n1 | 50.7 | 18.4 µM [rising, single point] | 25.9 µM [rising, single point]
4 | CCN(CC(O)Cn1c2ccccc2c2ccccc21)S(=O)(=O)c1ccc(F)cc1 (stereo not given) | -5.55 |  | 
5 | O=C(CN1C(=O)NC2(CCCC2)C1=O)OCc1c(F)cccc1Cl | -96.7 | 16.4 µM [falling, single point] | 20.6 µM [falling, single point]
6 | O=C(COc1ccc(Cl)cc1Cl)NCCC1=CCCCC1 | -25.9 | 14.6 µM [falling, single point] | 
7 | CCOc1ccc2nc(SCC(=O)c3ccc(C)s3)sc2c1 | 1.28 |  | 
8 | Cc1cc(C)cc(NC(=S)N2CCC(NC(=O)c3ccc(F)cc3)CC2)c1 | 4.96 |  | 
9 | COc1ccc(CN(C)CC(=O)NC(=O)NCc2ccccc2)cc1OC | 10.1 | 8.2 µM [rising, partial curve, poor fit] | 
10 | O=C(CCN1C(=O)/C(=C/c2ccc3c(c2)OCO3)SC1=S)Nc1cccc(C(=O)O)c1 | -5.41 | 29.1 µM [rising, single point] | 
11 | CCCCCCn1c2c(c(=N)c3c1CCC3)CCC2 | -132 |  | 
12 | Cn1c(SCC(=O)NC(C)(C)C)nnc1-c1cccc(NC(=O)c2ccccc2F)c1 | 95.6 | 11.6 µM [rising, partial curve, poor fit] | 1.84 µM [rising, partial curve]
13 | Cc1ccc(C2=NOC3(CC(=O)N(c4ccccc4)C3=O)C2)cc1 (stereo not given) | 23.9 | 32.6 µM [rising, single point] | 
14 | COCCNC(=S)NC1CC2CCC(C1)N2Cc1ccccc1 (stereo not given) | 12.5 | 0.146 µM [rising, full curve, poor fit] | 
15 | COc1ccc(/C(C)=N/NC(=O)c2nnn(-c3nonc3N)c2-c2cccs2)cc1 | 26.2 | 29.1 µM [rising, single point] | 
16 | COc1cc(OC)c2c(N)c(C#N)c(C(F)(F)C(F)(F)F)nc2c1 | 115 | 2.91 µM [rising, full curve] | 2.59 µM [rising, full curve]
17 | Cc1ccc(S(=O)(=O)NCC(=O)N(CC(=O)NC(C)(C)C)Cc2cccs2)cc1 | -11.8 | 0.58 µM [falling, single point] | 
18 | O=C(Nc1cccc(Cn2cccn2)c1)c1cc2c(s1)CCCC2 | 2.7 |  | 
19 | CC(=O)Nc1ccc(-n2nnnc2SCC(=O)Nc2cccc(NC(=O)c3ccco3)c2)cc1 | 10 | 25.9 µM [rising, partial curve, poor fit] | 

Look-ups from the list:
cell number change [%], O=C(CN1C(=O)NC2(CCCC2)C1=O)OCc1c(F)cccc1Cl reads -96.7
cell number change [%], Cc1cc(C)cc(NC(=S)N2CCC(NC(=O)c3ccc(F)cc3)CC2)c1 reads 4.96

Filtered by structure: the compounds so far containing a tert-butyl group.
Row | SMILES | cell number change [%] | AC50 [1] | AC50 [2]
12 | Cn1c(SCC(=O)NC(C)(C)C)nnc1-c1cccc(NC(=O)c2ccccc2F)c1 | 95.6 | 11.6 µM [rising, partial curve, poor fit] | 1.84 µM [rising, partial curve]
17 | Cc1ccc(S(=O)(=O)NCC(=O)N(CC(=O)NC(C)(C)C)Cc2cccs2)cc1 | -11.8 | 0.58 µM [falling, single point] | 

(cont.)

Row | SMILES | cell number change [%] | AC50 [1] | AC50 [2]
20 | Cc1c(C(=O)O)oc2ccc(S(=O)(=O)NC3CCCCCCC3)cc12 | 7.75 | 13 µM [rising, single point] | 
21 | CCOC(=O)c1ccc(NC(=O)c2cc3c(C)nn(-c4ccccc4Cl)c3s2)s1 | 14.1 |  | 6.51 µM [rising, single point]
22 | COc1cccc2c1C(=O)c1c(O)c3c(c(O)c1C2=O)C[C@@](O)(C(=O)CO)C[C@@H]3O[C@H]1C[C@H](N)[C@H](O)[C@H](C)O1 | -93.4 | 1.3 µM [falling, full curve] | 2.31 µM [falling, full curve]
23 | CCOc1ncccc1C(=O)OCC(=O)Nc1ccc(S(=O)(=O)N2CCCC2)cc1 | -4.48 |  | 
24 | CC(C)(C)c1ccc(C(=O)N2CCN(CCNC(=O)C(=O)NCc3ccccc3)CC2)cc1 | 31.6 |  | 8.2 µM [rising, partial curve, poor fit]
25 | COC(=O)c1ccccc1NC(=S)NC(=O)COc1ccc(C(C)C)cc1 | -24.2 | 3.26 µM [rising, single point] | 4.11 µM [rising, single point]
26 | O=C1C=C(c2ccc(Oc3ccccc3)cc2)C[C@@H](c2ccc(F)cc2)C1 | 11.1 |  | 
27 | Cn1cc(C(=O)N/N=C/C2=C(N3CCOCC3)C(=C\c3ccccc3)/CC2)ccc1=O | -2.66 | 14.6 µM [rising, partial curve] | 
28 | O=C(COC(=O)[C@H](Cc1c[nH]c2ccccc12)NC(=O)c1ccc(Cl)cc1)Nc1ccc2c(c1)OCO2 | 1.3 | 23.1 µM [rising, partial curve] | 
29 | CC(C)(C)Cc1nc(-c2ccc(Cl)cc2)no1 | -82.2 |  | 9.2 µM [falling, partial curve]
30 | COc1ccc(-c2cccc(C3CC=CC4C3C(=O)N(Cc3ccccc3)C4c3ccc(OC)c(Cl)c3)c2)cc1 (stereo not given) | -31.6 | 13 µM [falling, partial curve] | 7.31 µM [falling, partial curve, poor fit]
31 | COc1ccc(OC)c(/C=C/C(=O)N2C(=O)c3cccc(N)c3C2=O)c1 |  | 29.1 µM [falling, single point] | 
32 | CC(=O)c1ccc(S(=O)(=O)N(C)CC(=O)Nc2ccc(C)cc2)cc1 | 9.91 | 1.84 µM [rising, full curve, poor fit] | 
33 | Cc1cc2nc(N3CCN(C(=O)c4ccco4)CC3)sc2cc1C | 51 |  | 2.06 µM [rising, full curve]
34 | O=c1[nH]cc(S(=O)(=O)c2ccccc2)[nH]1 |  |  | 0.731 µM [rising, single point]
35 | Cc1sc(NC(=O)CSc2nnc(C)c(=O)[nH]2)c(C#N)c1C | 15.6 |  | 1.64 µM [rising, single point]
36 | CCS(=O)(=O)c1nc(S(=O)(=O)c2ccc(C)cc2)c(N2CCC(O)CC2)s1 | -32.9 |  | 32.6 µM [falling, single point]
37 | Cc1cc(OCCOCCNC(C)C)cc(C)c1Cl | 15.2 | 6.51 µM [falling, single point] | 4.11 µM [falling, single point]
38 | CCn1c(=O)n(CC)c2cc(NS(=O)(=O)c3ccccc3)ccc21 | 19.4 | 3.66 µM [rising, single point] | 0.092 µM [rising, full curve, poor fit]
